No constants are given. Whether binding was seen depends on the method and setting. Binding seen in cells or lysates may run through a third protein. Some entries that bind do so weakly or less than the wild type.
What was measured:
[1] = target: Smad2 (human (endogenous in 16HBE)), Q15796; assay: co-IP; total cellular protein extracts of 16HBE cells immunoprecipitated with anti-SMAD2/3 antibody (Co-IP kit, Thermo Fisher), western blot with anti-SMAD4 antibody; cells: control, TGF-β1 (10 ng/mL), or scutellarin (20, 50, 100 μM) before TGF-β1; conditions: remark: other sources report otherwise
[2] = target: Smad3 (human (endogenous in 16HBE)), P84022; assay: as above; conditions: remark: other sources report otherwise

B1: Smad4, Q13485 1-552 (protein)
chain: MDNMSITNTPTSNDACLSIVHSLMCHRQGGESETFAKRAIESLVKKLKEKKDELDSLITAITTNGAHPSKCVTIQRTLDGRLQVAGRKGFPHVIYARLWRWPDLHKNELKHVKYCQYAFDLKCDSVCVNPYHYERVVSPGIDLSGLTLQSNAPSSMMVKDEYVHDFEGQPSLSTEGHSIQTIQHPPSNRASTETYSTPALLAPSESNATSTANFPNIPVASTSQPASILGGSHSEGLLQIASGPQPGQQQNGFTGQPATYHHNSTTTWTGSRTAPYTPNLPHHQNGHLQHHPPMPPHPGHYWPVHNELAFQPPISNHPAPEYWCSIAYFEMDVQVGETFKVPSSCPIVTVDGYVDPSGGDRFCLGQLSNVHRTEAIERARLHIGKGVQLECKGEGDVWVRCLSDHAVFVQSYYLDREAGRAPGDAVHKIYPSAYIKVFDLRQCHRQMQQQAATAQAAAAAQAAAVAGNIPGPGSVGGIAPAISLSAAAGIGVDDLRRLCILRMSFVKGWGPDYPRQSIKETPCWIEIHLHRALQLLDEVLHTMPIADPQPLD
binding [1]: binds | binding [2]: binds
